In publication doi:10.1101/2024.05.31.596839:
No constants are given. Whether binding was seen depends on the method and setting. Some binding calls cover weakened binding; strength is not graded here.

Assays:
BoYb (Drosophila) = biological target: T1, BoYb (Drosophila) (UniProt Q9VNP5); test: ReLo
T1 sequence: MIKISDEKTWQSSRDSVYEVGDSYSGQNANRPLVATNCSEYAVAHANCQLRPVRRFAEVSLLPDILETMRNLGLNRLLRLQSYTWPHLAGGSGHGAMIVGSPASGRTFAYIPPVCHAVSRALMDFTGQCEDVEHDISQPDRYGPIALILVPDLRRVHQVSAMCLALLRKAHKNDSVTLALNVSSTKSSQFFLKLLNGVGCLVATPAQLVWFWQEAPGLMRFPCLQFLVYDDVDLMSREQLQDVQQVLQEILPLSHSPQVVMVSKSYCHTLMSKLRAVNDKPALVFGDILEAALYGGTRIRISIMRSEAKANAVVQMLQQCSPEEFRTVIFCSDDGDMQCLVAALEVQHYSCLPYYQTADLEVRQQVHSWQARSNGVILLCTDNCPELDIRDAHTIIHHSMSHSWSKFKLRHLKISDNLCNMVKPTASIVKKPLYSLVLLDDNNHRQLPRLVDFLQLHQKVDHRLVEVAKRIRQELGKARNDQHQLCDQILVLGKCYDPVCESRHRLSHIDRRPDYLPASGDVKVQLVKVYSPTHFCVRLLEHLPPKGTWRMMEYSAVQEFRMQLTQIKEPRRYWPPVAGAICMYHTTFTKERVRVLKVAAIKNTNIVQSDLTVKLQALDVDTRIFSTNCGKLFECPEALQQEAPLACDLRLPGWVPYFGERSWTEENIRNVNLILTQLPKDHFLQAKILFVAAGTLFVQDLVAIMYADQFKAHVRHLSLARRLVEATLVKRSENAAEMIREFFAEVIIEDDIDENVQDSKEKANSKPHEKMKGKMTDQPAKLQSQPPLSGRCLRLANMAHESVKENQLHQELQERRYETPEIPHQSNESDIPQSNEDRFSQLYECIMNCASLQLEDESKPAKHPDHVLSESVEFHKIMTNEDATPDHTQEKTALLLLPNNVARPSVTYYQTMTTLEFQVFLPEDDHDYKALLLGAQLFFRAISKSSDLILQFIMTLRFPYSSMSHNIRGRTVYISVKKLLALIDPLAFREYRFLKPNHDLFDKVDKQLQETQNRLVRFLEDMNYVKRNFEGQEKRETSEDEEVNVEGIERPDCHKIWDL

[1] = biological target: T2, BoYb NTD_MUT and CS_MUT1 (full-length) (Drosophila) (UniProt Q9VNP5); test: ReLo
T2 sequence: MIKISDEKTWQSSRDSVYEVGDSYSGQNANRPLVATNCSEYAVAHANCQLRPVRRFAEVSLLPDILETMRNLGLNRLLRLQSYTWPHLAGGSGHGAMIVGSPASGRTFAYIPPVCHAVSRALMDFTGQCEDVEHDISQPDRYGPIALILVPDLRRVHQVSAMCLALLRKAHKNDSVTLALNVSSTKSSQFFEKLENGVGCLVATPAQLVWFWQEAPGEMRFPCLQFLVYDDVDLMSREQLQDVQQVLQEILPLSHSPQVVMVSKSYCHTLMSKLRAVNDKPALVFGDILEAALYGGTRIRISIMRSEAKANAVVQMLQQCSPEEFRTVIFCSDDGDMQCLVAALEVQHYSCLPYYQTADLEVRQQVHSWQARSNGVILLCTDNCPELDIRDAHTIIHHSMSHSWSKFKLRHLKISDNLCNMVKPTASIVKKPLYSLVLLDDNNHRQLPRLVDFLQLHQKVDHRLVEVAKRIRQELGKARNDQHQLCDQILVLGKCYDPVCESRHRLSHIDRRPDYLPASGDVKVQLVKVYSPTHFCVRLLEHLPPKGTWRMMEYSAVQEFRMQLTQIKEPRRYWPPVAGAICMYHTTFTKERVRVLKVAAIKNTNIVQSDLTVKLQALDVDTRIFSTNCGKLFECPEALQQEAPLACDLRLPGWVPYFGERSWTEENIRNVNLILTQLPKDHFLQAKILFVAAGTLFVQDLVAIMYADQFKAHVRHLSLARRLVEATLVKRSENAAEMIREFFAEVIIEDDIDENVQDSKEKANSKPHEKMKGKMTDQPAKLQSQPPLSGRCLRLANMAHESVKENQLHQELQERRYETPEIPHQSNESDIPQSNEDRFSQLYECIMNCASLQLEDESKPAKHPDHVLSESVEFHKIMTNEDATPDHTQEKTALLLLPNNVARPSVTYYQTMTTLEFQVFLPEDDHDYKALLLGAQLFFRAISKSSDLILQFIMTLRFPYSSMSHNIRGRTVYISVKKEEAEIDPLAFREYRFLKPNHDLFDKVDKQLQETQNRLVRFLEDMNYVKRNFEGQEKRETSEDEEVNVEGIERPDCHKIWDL

- binding (BoYb (Drosophila)): binds
- binding [1]: no binding
B1: Vreteno (protein, UniProt Q9VCU7 1-691)
chain: MESESSQDDWSAFDPMSREYYDQVGNRYTNESGQKLIMEAPLPPKDEKEQRATRQAKYPYLVVPKSSPYVTEKMLINFFGRALIKEMEFRRLSRVYFVYFENIASLETAQQRVQRYPNLIKCITGRPQKEREITSDPVTSTEPMPTPGPAISATERTPVNHNREVPISTGGQNHPEFFRPPLVTKDDYKRGSLLATNDPIQRYLNVKYEFALERHDIYKLKDETRIPQVVLHFRSGRTIPLSTVAVTEEDKTKSLLEDGVSKCVVCQNWTDTFCKLCKMPFCNASCFADVAEQHKQACGKGEILNLDEKVGRKYPKPGLPPSGSKVRITAFEQTNVVYVRSADIQIDIAYYTVLTEVMMLGKDASKLQSTPVCGQIVLYKFEGHMSRAMVLNVDNIKEIYVVFIDFGSVEVTQLERLYECSSYLAGLTCYPVAVKLRGVPRRFVGPNIREVMYELDQSLVFNIKYSSREYDTSKGMQVVVMTEIDINRSLNRLFKTILTPVEPSVSDLGYKEDCLPYIPLHCGKNINVVVMDNTFIQCGFIYCTSIDLAYEVTKMQRDIQEYGEKIAKCATYAPPINELCIAKYEGKWRRGLSVELVGDGYPSILFIDYGNIVPTHVTDIRPYPPQFIFPIMTTQLDLIGVPEKPTDEQIKWLDKNYPIGSVITCSEITFDEETNSYSTRIEKLQEFLSLD
